Article doi:10.1101/2023.12.20.572542 (bioRxiv, 2023)
Results are given in words; binding and its absence hold for the method and conditions named. Some binding calls cover weakened binding; strength is not graded here. Tags and fused reporters may be left off the sequences shown.

Assays:
[1] = biological target: T1, sp9C1-eGFP-twinstrep (sea urchin ortholog of SLC9C1) (sea urchin) (UniProt A3RL54)
T1 sequence: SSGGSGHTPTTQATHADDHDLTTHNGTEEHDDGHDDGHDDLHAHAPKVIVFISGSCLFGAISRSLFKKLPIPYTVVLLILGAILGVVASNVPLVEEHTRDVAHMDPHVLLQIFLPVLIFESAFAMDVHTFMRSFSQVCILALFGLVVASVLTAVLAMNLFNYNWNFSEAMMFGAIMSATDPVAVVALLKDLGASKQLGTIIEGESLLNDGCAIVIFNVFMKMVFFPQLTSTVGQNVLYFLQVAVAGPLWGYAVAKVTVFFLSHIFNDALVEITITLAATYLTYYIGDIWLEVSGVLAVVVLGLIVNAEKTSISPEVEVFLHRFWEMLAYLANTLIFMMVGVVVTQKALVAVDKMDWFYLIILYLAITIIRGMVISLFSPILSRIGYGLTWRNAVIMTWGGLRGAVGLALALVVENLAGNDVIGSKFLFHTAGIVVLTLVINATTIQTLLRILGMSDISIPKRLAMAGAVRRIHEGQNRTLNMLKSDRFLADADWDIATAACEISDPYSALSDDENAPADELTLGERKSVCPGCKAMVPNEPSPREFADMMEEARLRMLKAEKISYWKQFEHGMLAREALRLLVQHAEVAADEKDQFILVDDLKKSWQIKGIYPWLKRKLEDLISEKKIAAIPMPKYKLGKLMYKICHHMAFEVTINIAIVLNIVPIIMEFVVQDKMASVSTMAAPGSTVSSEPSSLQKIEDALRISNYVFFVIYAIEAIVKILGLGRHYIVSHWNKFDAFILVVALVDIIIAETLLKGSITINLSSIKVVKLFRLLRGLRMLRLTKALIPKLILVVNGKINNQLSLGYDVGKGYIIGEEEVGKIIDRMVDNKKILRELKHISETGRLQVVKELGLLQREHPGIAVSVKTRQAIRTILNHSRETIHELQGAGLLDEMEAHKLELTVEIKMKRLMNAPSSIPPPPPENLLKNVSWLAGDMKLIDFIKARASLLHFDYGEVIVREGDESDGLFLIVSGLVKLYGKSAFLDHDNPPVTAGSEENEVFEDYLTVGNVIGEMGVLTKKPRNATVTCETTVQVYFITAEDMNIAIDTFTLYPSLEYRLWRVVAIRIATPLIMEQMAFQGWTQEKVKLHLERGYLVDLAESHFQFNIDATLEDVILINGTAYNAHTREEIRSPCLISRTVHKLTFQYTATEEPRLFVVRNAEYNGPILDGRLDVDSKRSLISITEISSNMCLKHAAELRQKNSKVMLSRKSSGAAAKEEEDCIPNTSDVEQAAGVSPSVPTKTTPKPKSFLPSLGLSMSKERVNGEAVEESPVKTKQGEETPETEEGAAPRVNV

LRRC52 (γ2)-mCherry-FLAG = LRRC52 (γ2)-mCherry-FLAG (UniProt Q8N7C0); experiment: SEC
LRRC55 (γ3)-mCherry-FLAG = LRRC55 (γ3)-mCherry-FLAG (UniProt Q6ZSA7); experiment: SEC
LRRC38 (γ4)-mCherry-FLAG = LRRC38 (γ4)-mCherry-FLAG (UniProt Q5VT99); experiment: SEC
[2] = biological target: LRRD of γ2 (residues 1-244)-mCherry-FLAG (UniProt Q8N7C0); experiment: SEC
[3] = biological target: LRRD of γ4 (residues 1-247)-mCherry-FLAG (UniProt Q5VT99); experiment: SEC

B1: sp9C1-mCherry-FLAG (sea urchin ortholog of SLC9C1) (protein, UniProt A3RL54 30-1325)
chain: T1 sequence
Question: Which binding [1] does the source give for B1 here?
Answer: binds

B2: LRRC52 (γ2)-mCherry-FLAG (protein, UniProt Q8N7C0 24-313)
chain: SKCPNNCLCQAQEVICTGKQLTEYPLDIPLNTRRLFLNENRITSLPAMHLGLLSDLVYLDCQNNRIREVMDYTFIGVFKLIYLDLSSNNLTSISPFTFSVLSNLVQLNIANNPHLLSLHKFTFANTTSLRYLDLRNTGLQTLDSAALYHLTTLETLFLSGNPWKCNCSFLDFAIFLIVFHMDPSDDLNATCVEPTELTGWPITRVGNPLRYMCITHLDHKDYIFLLLIGFCIFAAGTVAAWLTGVCAVLYQNTRHKSSEEDEDEAGTRVEVSRRIFQTQTSSVQEFPQLI
Question: With B2 as the binder, how does the binding (LRRC52 (γ2)-mCherry-FLAG) read?
Answer: binds

B3: LRRC55 (γ3)-mCherry-FLAG (protein, UniProt Q6ZSA7 35-298)
chain: GTSCPVLCTCRNQVVDCSSQRLFSVPPDLPMDTRNLSLAHNRITAVPPGYLTCYMELQVLDLHNNSLMELPRGLFLHAKRLAHLDLSYNNFSHVPADMFQEAHGLVHIDLSHNPWLRRVHPQAFQGLMQLRDLDLSYGGLAFLSLEALEGLPGLVTLQIGGNPWVCGCTMEPLLKWLRNRIQRCTADSQLAECRGPPEVEGAPLFSLTEESFKACHLTLTLDDYLFIAFVGFVVSIASVATNFLLGITANCCHRWSKASEEEEI
Question: B3 was tested. Which binding (LRRC55 (γ3)-mCherry-FLAG) did it give?
Answer: binds

B4: LRRC38 (γ4)-mCherry-FLAG (protein, UniProt Q5VT99 28-294)
chain: CPAGCACTDPHTVDCRDRGLPSVPDPFPLDVRKLLVAGNRIQRIPEDFFIFYGDLVYLDFRNNSLRSLEEGTFSGSAKLVFLDLSYNNLTQLGAGAFRSAGRLVKLSLANNNLVGVHEDAFETLESLQVLELNDNNLRSLSVAALAALPALRSLRLDGNPWLCDCDFAHLFSWIQENASKLPKGLDEIQCSLPMESRRISLRELSEASFSECRFSLSLTDLCIIIFSGVAVSIAAIISSFFLATVVQCLQRCAPNKDAEDEDEDKDD
Question: Which binding (LRRC38 (γ4)-mCherry-FLAG) does the source give for B4 here?
Answer: binds

B5: LRRD of γ2 (residues 1-244)-mCherry-FLAG (domain or fragment, UniProt Q8N7C0 24-244)
chain: SKCPNNCLCQAQEVICTGKQLTEYPLDIPLNTRRLFLNENRITSLPAMHLGLLSDLVYLDCQNNRIREVMDYTFIGVFKLIYLDLSSNNLTSISPFTFSVLSNLVQLNIANNPHLLSLHKFTFANTTSLRYLDLRNTGLQTLDSAALYHLTTLETLFLSGNPWKCNCSFLDFAIFLIVFHMDPSDDLNATCVEPTELTGWPITRVGNPLRYMCITHLDHKD
Question: How did the binding [2] turn out when B5 was run?
Answer: binds

B6: LRRD of γ4 (residues 1-247)-mCherry-FLAG (domain or fragment, UniProt Q5VT99 28-247)
chain: CPAGCACTDPHTVDCRDRGLPSVPDPFPLDVRKLLVAGNRIQRIPEDFFIFYGDLVYLDFRNNSLRSLEEGTFSGSAKLVFLDLSYNNLTQLGAGAFRSAGRLVKLSLANNNLVGVHEDAFETLESLQVLELNDNNLRSLSVAALAALPALRSLRLDGNPWLCDCDFAHLFSWIQENASKLPKGLDEIQCSLPMESRRISLRELSEASFSECRFSLSLTD
Question: For B6, which binding [3] is on record?
Answer: binds
